Reference: PubChem BioAssay AID504791 (Drosophila RNAi Screening Center, 2011)

- Purpose: 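Genes of the fly required for silencing by miRNA, siRNA or endo-siRNA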 (primary screen)
- System: Drosophila S2-derived reporter cells
- Reagents: long dsRNA against Drosophila genes, about 150-250 ng dsRNA per well (siRNA assay); about 80-120 ng (miRNA assay)
- Time to read-out: about 5 days (siRNA assay); about 4 days (miRNA assay)
- Conditions: copper sulfate induction of reporters: 25 µM (siRNA assay); 200 mM stated (miRNA assay), 1-2 days before reading
- Read-out: 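Per-well ratio of Renilla over firefly light, expressed relative to that plate's average ratio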
- Direction: siRNA reporter hit score: higher = 3 marks a strong hit with raised ratio; -3 a strong hit with lowered ratio
- Rule for the call: 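First-pass picks had plate-scaled ratios over 1.5 for the siRNA assay, over 1.6 for the miRNA assay, or under 0.6; two distinct dsRNAs had to score alike on retest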
The deposit covers about 23,000 reagents; shown is a random part of those with a known target gene and a result. Over the whole deposit, 199 (0.86%) were called active. 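Plate-scaled ratios behind the calls are not deposited; printed light signals are raw; many rows marked increased or decreased are still called inactive.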 A plus sign joins genes that one reagent is predicted to hit.

no.	predicted target	DRSC id	siRNA reporter hit score	stable siRNA reporter change	miRNA reporter change	stable assay Renilla, run 1 (luminescence)	stable assay firefly, run 1 (luminescence)	outcome
1	CG11629 (GeneID 35431)	DRSC03695				5944	3.36e5	inactive
2	CG4313 (GeneID 31169)	DRSC18514				8099	4.46e5	inactive
3	CG17580 (GeneID 50228)	DRSC06683				5479	3.12e5	inactive
4	Mst84Db (GeneID 40888)	DRSC12542				7874	4.99e5	inactive
5	Mst84Db (GeneID 40888)	DRSC12598				7099	5.75e5	inactive
6	Mst84Db (GeneID 40888)	DRSC29236			reporter ratio lowered past the hit cutoff			inactive
7	CG13018 (GeneID 50224)	DRSC06274				6211	4.03e5	inactive
8	ear (GeneID 44451)	DRSC15675			reporter ratio lowered past the hit cutoff	4451	3.25e5	active
9	msn (GeneID 44030)	DRSC07990				4968	4.28e5	inactive
10	msn (GeneID 44030)	DRSC08498				5430	3.21e5	inactive
11	Scsalpha1 (GeneID 38447)	DRSC08698				12046	4.89e5	inactive
12	Ucp4B (GeneID 33833)	DRSC02665				7330	3.76e5	inactive
13	gig (GeneID 40201)	DRSC11351		reporter ratio raised past the hit cutoff		19640	4.28e5	inactive
14	CG33170 (GeneID 326267)	DRSC11854				8771	3.88e5	inactive
15	CG33170 (GeneID 326267)	DRSC22366				9570	6.65e5	inactive
16	CG12851 (GeneID 37993)	DRSC04131				6598	5.01e5	inactive
17	CG12951 (GeneID 41110)	DRSC14579				6159	5.31e5	inactive
18	MED23 + CG3700	DRSC04406				6443	3.71e5	inactive
19	MED23 + CG3700	DRSC04407				6828	8.57e5	inactive
20	CG14079 (GeneID 40086)	DRSC10083				6431	3.57e5	inactive
21	CG32985 (GeneID 326244)	DRSC02634				8204	3.46e5	inactive
22	CG3528 (GeneID 33436)	DRSC00611				8900	3.72e5	inactive
23	CG3528 (GeneID 33436)	DRSC26034			reporter ratio raised past the hit cutoff			inactive
24	CG2111 (GeneID 31995)	DRSC18205				5231	5.06e5	inactive
25	CG5644 (GeneID 39029)	DRSC10531				6107	3.83e5	inactive
26	CG32432 (GeneID 40310)	DRSC11703	3	reporter ratio raised past the hit cutoff		5898	1.98e5	inactive
27	CG32432 (GeneID 40310)	DRSC11704		reporter ratio raised past the hit cutoff		5719	2.01e5	inactive
28	CG32432 (GeneID 40310)	DRSC11744				7390	3.81e5	inactive
29	CG42613 (GeneID 42269)	DRSC13332				3499	3.52e5	inactive
30	CG42613 (GeneID 42269)	DRSC14769				8745	5.59e5	inactive
31	CG42613 (GeneID 42269)	DRSC15802				10853	5.29e5	inactive
32	Acp53Ea (GeneID 36874)	DRSC05916				6358	3.22e5	inactive
33	CG14589 (GeneID 35541)	DRSC04866				6867	4.47e5	inactive
34	CG13843 (GeneID 42668)	DRSC14693				7879	5.04e5	inactive
35	Spx (GeneID 31558)	DRSC18720			reporter ratio lowered past the hit cutoff	6546	4.58e5	inactive
36	Spx (GeneID 31558)	DRSC23542			reporter ratio lowered past the hit cutoff			inactive
37	U2af50 (GeneID 32602)	DRSC20297				11607	9.02e5	inactive
38	U2af50 (GeneID 32602)	DRSC22867				6675	5.87e5	inactive
39	CG30457 (GeneID 36940)	DRSC06661				5295	4.45e5	inactive
40	IRSp53 (GeneID 39258)	DRSC10891				5871	2.97e5	inactive
41	CG12519 (GeneID 40114)	DRSC10311				6815	3.64e5	inactive
42	CG12519 (GeneID 40114)	DRSC21549				8980	5.05e5	inactive
43	Agpat1 (GeneID 32230)	DRSC19879				5840	4.11e5	inactive
44	Agpat1 (GeneID 32230)	DRSC19880				5915	4.29e5	inactive
45	CG12516 (GeneID 43370)	DRSC14524				5736	3.39e5	inactive
46	CG30447 (GeneID 246621)	DRSC05820				6818	4.61e5	inactive
47	tobi (GeneID 43072)	DRSC14435				7887	4.01e5	inactive
48	CG5704 (GeneID 48613)	DRSC08572				9087	3.19e5	inactive
49	swm (GeneID 35235)	DRSC02012				2.50e5	1.31e6	inactive
50	swm (GeneID 35235)	DRSC21831		reporter ratio raised past the hit cutoff		16392	5.35e5	inactive
51	Strip (GeneID 38412)	DRSC08194				7279	2.97e5	inactive
52	CG15115 (GeneID 37192)	DRSC06537				4043	3.37e5	inactive
53	Larp7 (GeneID 44900)	DRSC18798				6203	4.81e5	inactive
54	salt (GeneID 43742)	DRSC15427		reporter ratio raised past the hit cutoff		17231	5.66e5	inactive
55	Ent1 (GeneID 33207)	DRSC00330				14940	5.01e5	inactive
56	Nlg4 (GeneID 42402)	DRSC15108				6659	3.40e5	inactive
57	Nlg4 (GeneID 42402)	DRSC15109				6395	3.71e5	inactive
58	Nlg4 (GeneID 42402)	DRSC15700				6878	3.59e5	inactive
59	Nlg4 (GeneID 42402)	DRSC15701				5559	2.00e5	inactive
60	Nlg4 (GeneID 42402)	DRSC22243				12280	5.59e5	inactive

Copied from the entries so far, 7 entries:
no.	predicted target	DRSC id	siRNA reporter hit score	stable siRNA reporter change	miRNA reporter change	stable assay Renilla, run 1 (luminescence)	stable assay firefly, run 1 (luminescence)	outcome
49	swm (GeneID 35235)	DRSC02012				2.50e5	1.31e6	inactive
50	swm (GeneID 35235)	DRSC21831		reporter ratio raised past the hit cutoff		16392	5.35e5	inactive
51	Strip (GeneID 38412)	DRSC08194				7279	2.97e5	inactive
52	CG15115 (GeneID 37192)	DRSC06537				4043	3.37e5	inactive
53	Larp7 (GeneID 44900)	DRSC18798				6203	4.81e5	inactive
54	salt (GeneID 43742)	DRSC15427		reporter ratio raised past the hit cutoff		17231	5.66e5	inactive
55	Ent1 (GeneID 33207)	DRSC00330				14940	5.01e5	inactive
